± gives the standard deviation. This is a selection; strong and weak results do not stand in their true shares. Many of these values have a large error. This is one part of the list.
Legend:
[1] = test system: MIWI (PIWIL1) piRISC loaded with L1MC piRNA (30 nt); test: pre-steady-state target cleavage rate (min^-1); higher = faster piRNA-guided slicing of the target; conditions: guide: L1MC piRNA 5'p-UAACUAAAUACUAUGCAAGCUGUAGGUCCU
Summary of the method: (§1)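 Cleave-'n-Seq reactions paired 0.1 nM transcribed, DNA-blocked target RNA library with 1 nM active affinity-purified piRISC holding one synthetic guide, plus or minus 500 nM GTSF1 partner protein, in HEPES–potassium acetate buffer at 33 °C for 0–8 or 0–960 min. After sequencing of uncleaved targets and normalisation to depth and weakly complementary targets, the pre-steady-state cleavage rate was taken from a burst-and-steady-state fit. Three trials were pooled, and k3 was capped at 0.0001 min^-1.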

[2] = test system: EfPiwi piRISC loaded with L1MC piRNA (26 nt); test: pre-steady-state target cleavage rate (min^-1); guide: L1MC piRNA 5'p-UAACUAAAUACUAUGCAAGCUGUAGG; MIWI and MILI are mouse PIWI proteins and EfPiwi is from a freshwater sponge; tags in brackets are library labels; higher = faster piRNA-guided slicing of the target
Summary of the method: as §1

[3] = auxiliary factor: 500 nM mouse GTSF1
[4] = auxiliary factor: none (no GTSF1)
[5] = auxiliary factor: 500 nM Ephydatia muelleri Gtsf1
[6] = auxiliary factor: none (no Gtsf1)

Sequence | pre-steady-state target cleavage rate [1, 3] | pre-steady-state target cleavage rate [1, 4] | pre-steady-state target cleavage rate [2, 5] | pre-steady-state target cleavage rate [2, 6]
UCCUGGAUCAGCAUUGCAUAGUAUUUAGUUA | 0.875 ± 0.036 | 0.0165 ± 0.0047 | 0.0605 ± 0.015 | 0.00139 ± 0.006
UCCUGGAUGUCCUUGCAUACUAUUUAGAUA | 0.00269 ± 0.0047 | 0.000966 ± 0.0066 | 0.0031 ± 0.0039 | < 0.0001
UCCUGCUAGUCCUUGCAUAGUAUUUUCAAA | 0.00409 ± 0.0054 | 0.000773 ± 0.0073 | 0.00149 ± 0.0043 | 0.000344 ± 0.018
UCCUGGAUGUCGUUGCAUGUAUUUAGUUA | 0.000491 ± 0.018 | 0.00145 ± 0.005 | 0.000271 ± 0.015 | < 0.0001
UCCUGGAACAGCUUCGUUAGUAUUUAGUAA | – | 0.00134 ± 0.0049 | 0.000349 ± 0.011 | 0.000298 ± 0.016
UCCUGGAUGUCGAACCAUAGUAUUUAGAAA [g4:g15:cont:t1A] | – | 0.000289 ± 0.024 | 0.000358 ± 0.013 | 0.00019 ± 0.025
UCCUGGAUCAGCUUGCAAUCUAUUUACAAA | – | 0.000764 ± 0.011 | 0.000894 ± 0.0064 | 0.000127 ± 0.052
UCCUGGAUGUCGAUGCACAGUAUUUAGUUA | – | 0.0018 ± 0.0045 | 0.00158 ± 0.0046 | < 0.0001
UCCUGGAUGUCGUUGCAUAGUAUAUUAGUUA | 0.00156 ± 0.006 | 0.0014 ± 0.0072 | 0.00174 ± 0.0049 | 0.000451 ± 0.019
UCCUGGAUGUCCUUGCAUAGGUAUUUAGUUA | 0.00285 ± 0.004 | 0.00199 ± 0.0047 | 0.00127 ± 0.0048 | 0.000273 ± 0.024
UCCUGGAUGAGCUUGCAUAGUAAUAAGUUA | – | 0.000633 ± 0.0061 | 0.00134 ± 0.0043 | 0.000681 ± 0.011
UCCUGGUCACAGCUUGCAUAGUAUUUAGUUA | 0.818 ± 0.034 | 0.0939 ± 0.022 | 0.00857 ± 0.0072 | 0.00386 ± 0.0078
UCCUGGAUGUCGAUGCAUAGUAUAUAGUUA | – | 0.000955 ± 0.0071 | 0.00162 ± 0.005 | 0.000613 ± 0.0088
UCCUGGAUGAGCUUGCAUUAGUAUUUAGUUA | 0.00225 ± 0.0049 | 0.000838 ± 0.011 | 0.000454 ± 0.0094 | 0.000482 ± 0.017
UCCUGGAACAGCUUGCAAUCUAUUUAGAAA | 0.00161 ± 0.0067 | 0.000441 ± 0.0077 | 0.000283 ± 0.017 | 0.000416 ± 0.012
UCCUGGAUGUGCUUGCAUAGAUAUUUAGUUA | 0.00145 ± 0.0085 | 0.00159 ± 0.0059 | 0.000379 ± 0.011 | 0.000443 ± 0.018
UCCUGGAUCAGGAAGCAUAGUAUUUUCAAA | – | 0.000203 ± 0.014 | 0.000279 ± 0.011 | < 0.0001
UCCUGGAUGUCGAACGUUUGAAUUUAGUUA | 0.000438 ± 0.015 | – | 0.00028 ± 0.018 | 0.000301 ± 0.018
UCCUGGAUGUCGUUGCUUAGUAUUUAGUUA | 0.00157 ± 0.0054 | 0.0017 ± 0.0033 | 0.00155 ± 0.0035 | 0.000292 ± 0.027
UCCUGGAUGAGCUUGCAUACAUUUUAGUUA | – | 0.00107 ± 0.0066 | 0.000347 ± 0.0095 | 0.000177 ± 0.039
UCCUGGUACAGCUUGCAUAUGUAUUUAGUUA | 0.00371 ± 0.0053 | 0.00127 ± 0.009 | 0.000956 ± 0.011 | 0.000304 ± 0.03

Laid out differently: results already given.

| Sequence | pre-steady-state target cleavage rate [1, 3] | pre-steady-state target cleavage rate [1, 4] | pre-steady-state target cleavage rate [2, 5] | pre-steady-state target cleavage rate [2, 6] |
| --- | --- | --- | --- | --- |
| UCCUGGAACAGCUUCGUUAGUAUUUAGUAA | – | 0.00134 ± 0.0049 | 0.000349 ± 0.011 | 0.000298 ± 0.016 |
| UCCUGGAUGUCGAACCAUAGUAUUUAGAAA [g4:g15:cont:t1A] | – | 0.000289 ± 0.024 | 0.000358 ± 0.013 | 0.00019 ± 0.025 |
| UCCUGGAUCAGCUUGCAAUCUAUUUACAAA | – | 0.000764 ± 0.011 | 0.000894 ± 0.0064 | 0.000127 ± 0.052 |
| UCCUGGAUGUCGAUGCACAGUAUUUAGUUA | – | 0.0018 ± 0.0045 | 0.00158 ± 0.0046 | < 0.0001 |
| UCCUGGAUGUCGUUGCAUAGUAUAUUAGUUA | 0.00156 ± 0.006 | 0.0014 ± 0.0072 | 0.00174 ± 0.0049 | 0.000451 ± 0.019 |

Reference: the supplement of paper PMC10338343
